Experimental data from patent publication US9624288B2, “Engineered receptors and their use” (University of Pittsburgh—Of the Commonwealth System of …, priority 2012, dated 2017).
Entries after “also recorded” stand apart in the source; their conditions may differ.

Test: In vivo expression of EG assessed by co-expressed eGFP fluorescence
Conditions: after vector injection into the rat hind paw; listed as EG

B1: EG channel: ELIC extracellular domain fused to human GlyR α1 transmembrane domain; amine-gated Cl- channel, delivered as expression plasmid in vivo (protein)
chain: MGLRALMLWLLAAAGLVRESLQAPADNAADARPVDVSVSIFINKIYGVNTLEQTYKVDGYIVAQWTGKPRKTPGDKPLIVENTQIERWINNGLWVPALEFINVVGSPDTGNKRLMLFPDGRVIYNARFLGSFSNDMDFRLFPFDRQQFVLELEPFSYNNQQLRFSDIQVYTENIDNEEIDEWWIRGKASTHISDIRYDHLSSVQPNQNEFSRITVRIDAVRQMGYYLIQMYIPSLLIVILSWISFWINMDAAPARVGLGITTVLTMTTQSSGSRASLPKVSYVKAIDIWMAVCLLFVFSALLEYAAVNFVSRSQPARAAKIDKISRIGFPMAFLIFNMFYWIRGITL
modifications: Engineered Chloride Channel Receptor
notes: ELIC extracellular domain fused to human GlyR α1 transmembrane domain; amine-gated Cl- channel, delivered as expression plasmid in vivo
- EG expression (eGFP fluorescence): lasted for over six weeks; also recorded: robust
